According to the supplement of paper PMC8256030:
Several values for one entry are separate records, joined by “and”; a condition that tells them apart may be missing. Equal values may be shown once. The list shows a part of the results. Repeats in this data set agree poorly, so a single value says little.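 HEK293T cells were given each compound shortly before transfection with a reporter in which red mCherry is followed by the SARS-CoV-2 frameshift element and then GFP in the −1 frame, so GFP appears only after frameshifting.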

Experiments:
HEK293T = test: percent viability (nuclei count) relative to control; higher = more viable cells; conditions: 10 µM; 24 h
[1] = test system: SARS-CoV-2 -1 PRF reporter mCherry-FSE-GFP(-1); test: mCherry (red) intensity as percent of control; higher = higher upstream reporter expression; conditions: 10 µM; 24 h; HEK293T
[2] = test system: SARS-CoV-2 -1 PRF reporter mCherry-FSE-GFP(-1); test: percent effect, decrease of GFP/mCherry ratio (-1 PRF reporter) relative to controls; higher = stronger frameshift inhibition; conditions: 10 µM; 24 h; HEK293T

Row | Structure (SMILES) | percent viability (HEK293T) | mCherry [1] | percent effect [2]
1 | OC1(c2ccc(Cl)cc2)c2ccccc2C2=NCCN21 (centres undefined) [mazindol] | 97.7% | 99.4% | 2.24%
2 | CCCC(C)C1(CC)C(=O)NC(=O)NC1=O (centres undefined) [pentobarbital] | 60.8% | 86.2% | -3.57%
3 | Cc1ccccc1-n1c(C)nc2ccccc2c1=O [methaqualone] | 218% | 102% | -1%
4 | COC(=O)C1=CCCN(C)C1 | 269% | 98.2% | -0.905%
5 | CC1C=CC=CCCC=CC=CC=CC=CC(OC2OC(C)C(O)C(N)C2O)CC2OC(O)(CC(O)C(O)CCC(O)CC(O)CC(O)CC(=O)OC(C)C(C)C1O)CC(O)C2C(=O)O (centres undefined) [Nystatin] | 59.8% | 74.3% | -1.04%
6 | Clc1ccc(OC[C@H]2CCN2)cn1 [tebanicline] | 250% | 107% | -6.19%
7 | C/C(=C\c1csc(C)n1)[C@@H]1C[C@@H]2O[C@]2(C)CCC[C@H](C)[C@H](O)[C@@H](C)C(=O)C(C)(C)[C@@H](O)CC(=O)O1 [patupilone] | 26% | 145% | -11.5%
8 | C=C(C)[C@H]1CN[C@H](C(=O)O)[C@H]1CC(=O)O | 170% | 121% | 2.73%
9 | CCCC(C(=O)c1ccc(C)cc1)N1CCCC1 (centres undefined) [pyrovalerone] | 174% | 73.7% | -5.83%
10 | CCc1cc2c(s1)-n1c(C)nnc1CN=C2c1ccccc1Cl [etizolam] | 241% | 101% | -0.677%
11 | CC(C)N(CCNC(=O)CN1CCCC1=O)C(C)C [pramiracetam] | 313% | 121% | 1.22%
12 | C=C[C@]1(O)CC[C@H]2[C@@H]3CCC4=CC(=O)CC[C@@H]4[C@H]3CC[C@@]21C [norvinisterone] | 79.7% | 92.8% | -4.13%
13 | [N-]=[N+]=CC(=O)OC[C@H](N)C(=O)O [azaserine] | 184% | 99.1% | -0.181%
14 | CCC(=O)O[C@H]1CC[C@H]2[C@@H]3CCC4=CC(=O)CC[C@]4(C)[C@H]3CC[C@]12C [Testosterone Propionate] | 228% | 91.2% | 0.0813%
15 | CC1NCCOC1c1ccccc1 (centres undefined) [phenmetrazine] | 191% | 87.4% | -2.3%
16 | CO[C@]12C[C@@H](COC(=O)c3cncc(Br)c3)CN(C)[C@@H]1Cc1cn(C)c3cccc2c13 [nicergoline] | 244% and 253% | 103% and 101% | 1.3% and 2.5%
17 | COP(=S)(OC)Oc1ccc(SC)c(C)c1 | 358% | 90.4% | 0.465%
18 | C=C[C@H]1CN2CC[C@H]1C[C@@H]2[C@@H](O)c1ccnc2ccccc12 | 163% | 123% | 0.526%
19 | CNCC(O)c1cc(OC)c(O)c(OC)c1 (centres undefined) [dimetofrine] | 356% | 58.7% | -2.67%
20 | Cc1ccc2c(c1)[C@]13CCCC[C@@H]1[C@H](C2)N(C)CC3 [dimemorfan] | 57.4% | 111% | -2.22%
21 | CCC1(c2cccc(O)c2)CCCCN(C)C1 (centres undefined) [meptazinol] | 143% | 66.8% | 0.399%
22 | CCC1(CCC(C)C)C(=O)NC(=O)NC1=O [amobarbital] | 223% | 95.5% | -1.22%
23 | CC[C@H]1CCC[C@H](O[C@H]2CC[C@H](N(C)C)[C@@H](C)O2)[C@@H](C)C(=O)C2=C[C@@H]3[C@@H](C=C(C)[C@@H]4C[C@@H](O[C@@H]5O[C@@H](C)[C@H](OC)[C@@H](OC)[C@H]5OC)C[C@@H]34)[C@@H]2CC(=O)O1.CC[C@H]1CCC[C@H](O[C@H]2CC[C@H](N(C)C)[C@@H](C)O2)[C@@H](C)C(=O)C2=C[C@H]3[C@@H]4C[C@H](O[C@@H]5O[C@@H](C)[C@H](OC)[C@@H](OC)[C@H]5OC)C[C@H]4C=C[C@H]3C2CC(=O)O1 [Spinosad] | 321% | 88.8% | -5.28%

Only percent effect [2] (2 entries from above):
Row	Structure (SMILES)	percent effect [2]
5	CC1C=CC=CCCC=CC=CC=CC=CC(OC2OC(C)C(O)C(N)C2O)CC2OC(O)(CC(O)C(O)CCC(O)CC(O)CC(O)CC(=O)OC(C)C(C)C1O)CC(O)C2C(=O)O (centres undefined) [Nystatin]	-1.04%
6	Clc1ccc(OC[C@H]2CCN2)cn1 [tebanicline]	-6.19%
